Source: publication doi:10.1101/2020.04.06.027185
Results are given in words; binding and its absence hold for the method and conditions named. Binding seen in cells or lysates may run through a third protein. A result given as binding can be weak or reduced; the word gives no strength.

B1: desmoglein 3 (protein, UniProt P32926 50-999)
chain: EWVKFAKPCREGEDNSKRNPIAKITSDYQATQKITYRISGVGIDQPPFGIFVVDKNTGDINITAIVDREETPSFLITCRALNAQGLDVEKPLILTVKILDINDNPPVFSQQIFMGEIEENSASNSLVMILNATDADEPNHLNSKIAFKIVSQEPAGTPMFLLSRNTGEVRTLTNSLDREQASSYRLVVSGADKDGEGLSTQCECNIKVKDVNDNFPMFRDSQYSARIEENILSSELLRFQVTDLDEEYTDNWLAVYFFTSGNEGNWFEIQTDPRTNEGILKVVKALDYEQLQSVKLSIAVKNKAEFHQSVISRYRVQSTPVTIQVINVREGIAFRPASKTFTVQKGISSKKLVDYILGTYQAIDEDTNKAASNVKYVMGRNDGGYLMIDSKTAEIKFVKNMNRDSTFIVNKTITAEVLAIDEYTGKTSTGTVYVRVPDFNDNCPTAVLEKDAVCSSSPSVVVSARTLNNRYTGPYTFALEDQPVKLPAVWSITTLNATSALLRAQEQIPPGVYHISLVLTDSQNNRCEMPRSLTLEVCQCDNRGICGTSYPTTSPGTRYGRPHSGRLGPAAIGLLLLGLLLLLLAPLLLLTCDCGAGSTGGVTGGFIPVPDGSEGTIHQWGIEGAHPEDKEITNICVPPVTANGADFMESSEVCTNTYARGTAVEGTSGMEMTTKLGAATESGGAAGFATGTVSGAASGFGAATGVGICSSGQSGTMRTRHSTGGTNKDYADGAISMNFLDSYFSQKAFACAEEDDGQEANDCLLIYDNEGADATGSPVGSVGCCSFIADDLDDSFLDSLGPKFKKLAEISLGVDGEGKEVQPPSKDSGYGIESCGHPIEVQQTGFVKCQTLSGSQGASALSTSGSVQPAVSIPDPLQHGNYLVTETYSASGSLVQPSTAGFDPLLTQNVIVTERVICPISSVPGNLAGPTQLRGSHTMLCTEDPCSRLI
B2: desmocollin 3 (protein, UniProt Q14574 136-896)
chain: RWAPIPCSMQENSLGPFPLFLQQVESDAAQNYTVFYSISGRGVDKEPLNLFYIERDTGNLFCTRPVDREEYDVFDLIAYASTADGYSADLPLPLPIRVEDENDNHPVFTEAIYNFEVLESSRPGTTVGVVCATDRDEPDTMHTRLKYSILQQTPRSPGLFSVHPSTGVITTVSHYLDREVVDKYSLIMKVQDMDGQFFGLIGTSTCIITVTDSNDNAPTFRQNAYEAFVEENAFNVEILRIPIEDKDLINTANWRVNFTILKGNENGHFKISTDKETNEGVLSVVKPLNYEENRQVNLEIGVNNEAPFARDIPRVTALNRALVTVHVRDLDEGPECTPAAQYVRIKENLAVGSKINGYKAYDPENRNGNGLRYKKLHDPKGWITIDEISGSIITSKILDREVETPKNELYNITVLAIDKDDRSCTGTLAVNIEDVNDNPPEILQEYVVICKPKMGYTDILAVDPDEPVHGAPFYFSLPNTSPEISRLWSLTKVNDTAARLSYQKNAGFQEYTIPITVKDRAGQAATKLLRVNLCECTHPTQCRATSRSTGVILGKWAILAILLGIALLFSVLLTLVCGVFGATKGKRFPEDLAQQNLIISNTEAPGDDRVCSANGFMTQTTNNSSQGFCGTMGSGMKNGGQETIEMMKGGNQTLESCRGAGHHHTLDSCRGGHTEVDNCRYTYSEWHSFTQPRLGEKLHRCNQNEDRMPSQDYVLTYNYEGRGSPAGSVGCCSEKQEEDGLDFLNNLEPKFITLAEACTKR

Target: E-cadherin (human (endogenous in HaCaT))
Assay: co-IP

Row | Binder | binding
1 | B1 | binds
2 | B2 | binds
